In the supplement of paper PMC10849652:
The other results are listed elsewhere or left out.

By UniProt entry, the sequences of proteins in these tests, tags left out. Where a name states a change or a piece, a line headed by the entry shows the natural chain unless it says otherwise.
UniProt Q9BQ61: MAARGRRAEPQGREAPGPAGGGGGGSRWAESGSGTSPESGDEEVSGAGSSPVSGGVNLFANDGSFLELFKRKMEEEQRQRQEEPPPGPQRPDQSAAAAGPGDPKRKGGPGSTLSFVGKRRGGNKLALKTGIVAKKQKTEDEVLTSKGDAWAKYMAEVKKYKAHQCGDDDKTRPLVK
UniProt Q15645: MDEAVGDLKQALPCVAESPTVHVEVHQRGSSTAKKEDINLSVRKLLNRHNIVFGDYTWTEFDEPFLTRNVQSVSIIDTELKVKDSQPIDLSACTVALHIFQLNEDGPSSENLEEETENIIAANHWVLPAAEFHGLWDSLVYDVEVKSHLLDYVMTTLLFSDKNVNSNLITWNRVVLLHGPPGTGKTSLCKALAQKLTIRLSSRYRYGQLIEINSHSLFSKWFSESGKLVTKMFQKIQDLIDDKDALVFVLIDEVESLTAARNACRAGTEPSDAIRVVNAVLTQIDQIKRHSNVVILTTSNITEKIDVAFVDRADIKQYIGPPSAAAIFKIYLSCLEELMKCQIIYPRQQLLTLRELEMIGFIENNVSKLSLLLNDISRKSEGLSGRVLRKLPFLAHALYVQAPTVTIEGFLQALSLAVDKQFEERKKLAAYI
UniProt Q96S44: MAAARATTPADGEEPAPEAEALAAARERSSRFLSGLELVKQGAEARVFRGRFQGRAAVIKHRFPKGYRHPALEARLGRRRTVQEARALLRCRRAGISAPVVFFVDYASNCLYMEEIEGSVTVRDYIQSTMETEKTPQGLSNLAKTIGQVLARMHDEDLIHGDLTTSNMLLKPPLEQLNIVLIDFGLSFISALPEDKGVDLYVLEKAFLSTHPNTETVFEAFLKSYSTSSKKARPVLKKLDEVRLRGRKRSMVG
UniProt Q9UPN9: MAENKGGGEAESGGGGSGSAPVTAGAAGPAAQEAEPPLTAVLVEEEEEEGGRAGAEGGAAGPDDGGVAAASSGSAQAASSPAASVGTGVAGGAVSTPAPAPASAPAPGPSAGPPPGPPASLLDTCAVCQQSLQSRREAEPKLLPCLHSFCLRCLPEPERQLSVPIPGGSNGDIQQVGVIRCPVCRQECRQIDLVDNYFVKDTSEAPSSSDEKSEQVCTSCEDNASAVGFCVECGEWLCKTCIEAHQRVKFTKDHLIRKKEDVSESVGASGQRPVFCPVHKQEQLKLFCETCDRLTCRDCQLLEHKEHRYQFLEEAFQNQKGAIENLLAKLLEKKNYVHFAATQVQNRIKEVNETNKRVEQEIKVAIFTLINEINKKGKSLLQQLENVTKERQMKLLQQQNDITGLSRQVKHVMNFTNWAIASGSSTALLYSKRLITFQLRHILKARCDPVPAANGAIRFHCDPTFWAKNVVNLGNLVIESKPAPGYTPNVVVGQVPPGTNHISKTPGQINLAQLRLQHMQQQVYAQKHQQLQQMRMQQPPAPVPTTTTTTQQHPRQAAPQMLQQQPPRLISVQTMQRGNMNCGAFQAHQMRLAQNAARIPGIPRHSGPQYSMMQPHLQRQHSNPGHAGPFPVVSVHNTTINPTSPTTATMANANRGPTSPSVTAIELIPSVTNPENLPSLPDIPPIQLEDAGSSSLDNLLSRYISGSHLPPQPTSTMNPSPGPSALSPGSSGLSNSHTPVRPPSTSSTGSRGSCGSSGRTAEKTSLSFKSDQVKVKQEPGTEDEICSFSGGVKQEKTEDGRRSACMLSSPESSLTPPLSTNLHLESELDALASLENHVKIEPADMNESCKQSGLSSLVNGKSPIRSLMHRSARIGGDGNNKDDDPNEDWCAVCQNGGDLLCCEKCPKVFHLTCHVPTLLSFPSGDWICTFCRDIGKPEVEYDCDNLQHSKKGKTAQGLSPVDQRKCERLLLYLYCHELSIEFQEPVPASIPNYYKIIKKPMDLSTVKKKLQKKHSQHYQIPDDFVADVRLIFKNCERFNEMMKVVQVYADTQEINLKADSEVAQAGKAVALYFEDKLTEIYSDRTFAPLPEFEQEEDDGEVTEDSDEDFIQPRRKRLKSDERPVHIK
UniProt Q9NS69: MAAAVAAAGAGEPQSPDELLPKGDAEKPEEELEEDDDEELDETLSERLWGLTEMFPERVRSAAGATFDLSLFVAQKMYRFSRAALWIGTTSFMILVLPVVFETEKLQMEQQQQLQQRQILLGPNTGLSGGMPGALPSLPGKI
UniProt O14657: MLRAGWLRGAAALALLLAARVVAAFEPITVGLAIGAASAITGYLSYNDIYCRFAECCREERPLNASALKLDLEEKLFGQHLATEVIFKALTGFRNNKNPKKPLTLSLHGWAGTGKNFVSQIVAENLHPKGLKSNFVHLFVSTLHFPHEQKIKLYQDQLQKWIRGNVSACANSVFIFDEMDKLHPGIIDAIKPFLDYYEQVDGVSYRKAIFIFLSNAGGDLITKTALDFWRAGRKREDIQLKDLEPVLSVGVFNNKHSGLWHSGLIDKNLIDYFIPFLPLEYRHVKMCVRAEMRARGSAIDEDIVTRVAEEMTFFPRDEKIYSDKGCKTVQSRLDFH
UniProt P51580: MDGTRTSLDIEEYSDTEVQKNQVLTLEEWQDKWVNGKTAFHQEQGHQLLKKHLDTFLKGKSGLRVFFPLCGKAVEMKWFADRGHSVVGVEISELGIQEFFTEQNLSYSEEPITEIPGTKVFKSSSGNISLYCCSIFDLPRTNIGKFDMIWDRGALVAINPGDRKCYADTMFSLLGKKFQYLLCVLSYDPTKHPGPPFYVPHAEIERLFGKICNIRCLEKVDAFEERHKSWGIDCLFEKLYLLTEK
UniProt Q02880: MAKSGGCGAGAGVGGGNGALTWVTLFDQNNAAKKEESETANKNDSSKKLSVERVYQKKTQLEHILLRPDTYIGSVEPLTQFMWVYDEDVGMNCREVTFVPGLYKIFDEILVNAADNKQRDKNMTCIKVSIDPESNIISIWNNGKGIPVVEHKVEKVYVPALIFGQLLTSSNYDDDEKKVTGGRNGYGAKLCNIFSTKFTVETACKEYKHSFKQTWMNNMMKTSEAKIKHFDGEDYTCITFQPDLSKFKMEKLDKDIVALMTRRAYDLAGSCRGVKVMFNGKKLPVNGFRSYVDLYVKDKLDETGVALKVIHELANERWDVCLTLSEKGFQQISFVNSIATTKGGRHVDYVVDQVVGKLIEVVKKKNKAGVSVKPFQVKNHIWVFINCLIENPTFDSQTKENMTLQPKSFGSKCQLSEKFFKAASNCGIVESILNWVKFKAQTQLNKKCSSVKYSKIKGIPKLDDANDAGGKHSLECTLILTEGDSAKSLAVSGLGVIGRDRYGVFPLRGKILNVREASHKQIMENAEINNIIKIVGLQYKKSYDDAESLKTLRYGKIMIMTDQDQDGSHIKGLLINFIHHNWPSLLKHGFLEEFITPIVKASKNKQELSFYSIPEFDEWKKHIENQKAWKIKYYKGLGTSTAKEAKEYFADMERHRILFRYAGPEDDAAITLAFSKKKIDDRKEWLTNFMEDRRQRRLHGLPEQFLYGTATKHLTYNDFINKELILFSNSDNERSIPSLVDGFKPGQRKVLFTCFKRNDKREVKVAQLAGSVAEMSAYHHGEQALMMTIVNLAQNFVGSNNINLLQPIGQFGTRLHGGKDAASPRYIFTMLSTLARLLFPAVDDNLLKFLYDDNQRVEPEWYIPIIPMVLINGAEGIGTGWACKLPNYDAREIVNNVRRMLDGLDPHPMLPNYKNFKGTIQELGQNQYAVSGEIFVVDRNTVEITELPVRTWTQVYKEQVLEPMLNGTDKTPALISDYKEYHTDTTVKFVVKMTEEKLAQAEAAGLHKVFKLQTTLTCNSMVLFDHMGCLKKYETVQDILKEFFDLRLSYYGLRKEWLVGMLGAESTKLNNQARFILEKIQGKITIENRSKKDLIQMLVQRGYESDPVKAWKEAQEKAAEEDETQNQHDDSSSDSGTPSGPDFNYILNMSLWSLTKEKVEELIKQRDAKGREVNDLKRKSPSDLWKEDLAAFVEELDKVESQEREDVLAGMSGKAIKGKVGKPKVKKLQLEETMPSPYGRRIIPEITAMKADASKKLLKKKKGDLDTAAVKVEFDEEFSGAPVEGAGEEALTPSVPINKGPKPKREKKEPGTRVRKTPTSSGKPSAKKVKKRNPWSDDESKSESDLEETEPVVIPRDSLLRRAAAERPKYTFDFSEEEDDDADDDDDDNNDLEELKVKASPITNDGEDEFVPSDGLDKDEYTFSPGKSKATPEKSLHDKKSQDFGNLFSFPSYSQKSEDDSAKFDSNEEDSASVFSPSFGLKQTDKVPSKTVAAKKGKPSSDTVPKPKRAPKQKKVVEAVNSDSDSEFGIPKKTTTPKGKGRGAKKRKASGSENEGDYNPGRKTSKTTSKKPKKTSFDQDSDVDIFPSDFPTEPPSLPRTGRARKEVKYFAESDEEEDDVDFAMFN
UniProt Q8WW01: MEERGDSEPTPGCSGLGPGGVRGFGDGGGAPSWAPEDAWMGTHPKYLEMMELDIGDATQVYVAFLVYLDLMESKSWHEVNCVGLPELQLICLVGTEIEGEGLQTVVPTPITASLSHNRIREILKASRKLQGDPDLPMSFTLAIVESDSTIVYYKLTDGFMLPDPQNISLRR
UniProt Q9Y5R8, whole entry, looked up: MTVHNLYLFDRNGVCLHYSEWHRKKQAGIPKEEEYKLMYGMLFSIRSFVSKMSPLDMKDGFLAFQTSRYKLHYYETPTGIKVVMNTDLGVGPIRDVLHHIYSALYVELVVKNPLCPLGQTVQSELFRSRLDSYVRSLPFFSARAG
UniProt P60174, whole entry, looked up: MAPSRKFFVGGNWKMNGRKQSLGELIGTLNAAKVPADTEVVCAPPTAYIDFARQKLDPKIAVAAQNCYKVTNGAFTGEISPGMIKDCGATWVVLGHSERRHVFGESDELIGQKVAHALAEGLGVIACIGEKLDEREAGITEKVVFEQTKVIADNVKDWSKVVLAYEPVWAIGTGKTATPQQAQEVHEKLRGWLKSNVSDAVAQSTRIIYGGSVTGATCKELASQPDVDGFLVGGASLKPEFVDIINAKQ
UniProt O43399: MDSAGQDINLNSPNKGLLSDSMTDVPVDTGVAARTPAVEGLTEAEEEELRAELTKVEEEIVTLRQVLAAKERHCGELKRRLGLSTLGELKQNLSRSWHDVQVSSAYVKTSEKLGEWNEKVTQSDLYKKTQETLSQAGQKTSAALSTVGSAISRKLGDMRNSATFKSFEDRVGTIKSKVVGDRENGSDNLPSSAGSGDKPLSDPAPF
UniProt Q9Y4K3: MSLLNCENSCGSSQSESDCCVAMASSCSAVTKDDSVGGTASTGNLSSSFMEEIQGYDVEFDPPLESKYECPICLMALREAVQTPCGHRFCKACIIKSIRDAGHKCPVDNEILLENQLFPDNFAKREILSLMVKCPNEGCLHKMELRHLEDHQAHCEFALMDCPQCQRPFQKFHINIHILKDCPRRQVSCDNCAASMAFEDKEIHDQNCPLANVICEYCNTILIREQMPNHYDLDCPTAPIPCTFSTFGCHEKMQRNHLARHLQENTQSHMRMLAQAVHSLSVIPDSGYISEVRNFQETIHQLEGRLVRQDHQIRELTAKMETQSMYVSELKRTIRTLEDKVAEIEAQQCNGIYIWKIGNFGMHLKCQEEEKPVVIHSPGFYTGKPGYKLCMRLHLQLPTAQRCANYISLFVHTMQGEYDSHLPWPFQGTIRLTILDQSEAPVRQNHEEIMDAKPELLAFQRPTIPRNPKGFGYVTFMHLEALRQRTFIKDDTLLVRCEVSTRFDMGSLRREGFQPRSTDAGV
UniProt Q9NXH8: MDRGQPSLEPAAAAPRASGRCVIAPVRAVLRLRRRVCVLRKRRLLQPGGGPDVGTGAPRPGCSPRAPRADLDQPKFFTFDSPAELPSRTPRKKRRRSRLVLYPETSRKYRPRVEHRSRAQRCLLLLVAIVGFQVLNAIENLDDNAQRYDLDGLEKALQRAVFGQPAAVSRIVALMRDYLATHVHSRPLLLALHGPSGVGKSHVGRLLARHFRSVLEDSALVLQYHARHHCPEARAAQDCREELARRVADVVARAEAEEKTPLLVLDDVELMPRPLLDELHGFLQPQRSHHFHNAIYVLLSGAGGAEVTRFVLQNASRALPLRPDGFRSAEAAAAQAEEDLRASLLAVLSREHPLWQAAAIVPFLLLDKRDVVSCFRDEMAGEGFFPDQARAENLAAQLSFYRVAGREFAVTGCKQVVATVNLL
UniProt O60704: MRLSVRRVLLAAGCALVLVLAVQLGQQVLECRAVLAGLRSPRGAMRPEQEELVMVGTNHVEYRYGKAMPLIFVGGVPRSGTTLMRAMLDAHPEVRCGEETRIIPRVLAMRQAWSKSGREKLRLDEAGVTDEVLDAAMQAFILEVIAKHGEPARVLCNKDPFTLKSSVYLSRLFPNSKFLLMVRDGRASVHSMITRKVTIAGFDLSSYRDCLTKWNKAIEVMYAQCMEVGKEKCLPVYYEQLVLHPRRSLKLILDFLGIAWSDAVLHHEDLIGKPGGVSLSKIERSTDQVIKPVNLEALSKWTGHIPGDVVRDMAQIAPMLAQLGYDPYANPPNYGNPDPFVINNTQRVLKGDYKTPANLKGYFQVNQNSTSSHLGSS

The targets below were run with c1cn2cc(-c3ccc4cn[nH]c4c3)nc(Nc3ccc(N4CCOCC4)cc3)c2n1 [entospletinib] (assay: log2 fold change, soluble protein after heating vs DMSO (PISA); higher = thermal stabilisation; K562 cells, 10 uM, 30 min; active = over 0.2 and 3.5 SD of the protein, either way, in both replicates (recomputed)).
In short: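 K562 cells at 2×10^6 cells/mL were given 10 μM compound for 30 min. Aliquots then went through 3 min of heating across 48°C-58°C, were pooled, and were extracted in PBS with 0.5% NP-40 at 4°C, and the supernatant after 21,000xg for 90 min was quantified by TMTpro 16plex LC-MS/MS with channel sums equalised. Thermal stability relative to control samples, from duplicates, is given as log2 fold change.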

log2 fold change, inactive:
TNXB isoform 4 (UniProt P22105) 0.075, TRIR (UniProt Q9BQ61) 0.049, TRIP13 (UniProt Q15645) -0.054, TP53RK (UniProt Q96S44) 0.011, TRIM33 (UniProt Q9UPN9) 0.185, TRIM56 (UniProt Q9BRZ2) 0.038, TOR1AIP2 (UniProt Q8NFQ8) -0.006, TOMM22 (UniProt Q9NS69) 0.011, TOR1B (UniProt O14657) -0.03, TRMT1 (UniProt Q9NXH9) -0.036, TRIP4 (UniProt Q15650) -0.024, TPMT (UniProt P51580) -0.035, TOP2B (UniProt Q02880) 0.192, TSEN15 (UniProt Q8WW01) -0.04, TRAPPC1 (UniProt Q9Y5R8) -0.034, TRMU (UniProt O75648) -0.044, TRAP1 (UniProt Q12931) 0.004, TPI1 (UniProt P60174) 0.014, TPD52L2 isoform 7 (UniProt O43399) -0.005, TSC1 (UniProt Q92574) -0.058, TRAF6 (UniProt Q9Y4K3) 0.055, TOR4A (UniProt Q9NXH8) -0.015, TPST2 (UniProt O60704) -0.094
